Test results published in PubChem BioAssay AID1671190 (National Center for Advancing Translational Sciences (NCATS), 2021).
About 6,100 (1.1%) of roughly 580,000 compounds were called active. Inconclusive results, whose numbers are uncertain, are shown with a selection of clear calls. Calls follow the shape of the dose curve; as a rule, active = well fitted inhibition curve with a large enough effect; inconclusive = small, poorly fitted or top-dose-only effect, or another doubt; inactive = no such curve, though single readings can be large or run the other way. Potencies beside an inconclusive call are fits to weak or partial responses and may not hold up.

By UniProt entry, the sequences of proteins in these tests, tags left out.
UniProt P18054, whole entry, looked up: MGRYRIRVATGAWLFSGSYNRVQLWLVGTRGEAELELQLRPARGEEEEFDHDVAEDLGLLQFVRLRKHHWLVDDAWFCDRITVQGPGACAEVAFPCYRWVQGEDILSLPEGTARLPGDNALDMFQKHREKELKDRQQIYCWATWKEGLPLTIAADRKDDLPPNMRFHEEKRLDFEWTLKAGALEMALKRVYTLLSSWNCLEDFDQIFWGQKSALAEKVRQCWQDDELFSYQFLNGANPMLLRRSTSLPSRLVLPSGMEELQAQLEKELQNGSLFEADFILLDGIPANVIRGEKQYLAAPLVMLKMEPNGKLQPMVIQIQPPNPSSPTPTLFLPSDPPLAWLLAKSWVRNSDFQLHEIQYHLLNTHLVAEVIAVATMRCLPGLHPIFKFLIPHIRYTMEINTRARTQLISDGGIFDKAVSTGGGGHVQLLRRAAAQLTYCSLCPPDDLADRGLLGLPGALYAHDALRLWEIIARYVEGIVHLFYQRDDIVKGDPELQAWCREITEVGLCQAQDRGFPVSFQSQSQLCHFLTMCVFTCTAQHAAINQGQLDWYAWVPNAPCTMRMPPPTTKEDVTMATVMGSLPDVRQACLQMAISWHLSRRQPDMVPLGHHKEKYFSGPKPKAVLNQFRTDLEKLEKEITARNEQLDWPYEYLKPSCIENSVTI

Target: Polyunsaturated fatty acid lipoxygenase ALOX12 (Homo sapiens) (UniProt P18054)
Test: Primary qHTS assay for inhibitors of human arachidonate 12S-lipoxygenase (ALOX12): Round 2
Details: purified 12hLO, xylenol orange hydroperoxide absorbance; activity change, negative = inhibition: at 108 µM (top of the series) unless noted
Method in brief: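 Hydroperoxide product was detected by ferrous iron/xylenol orange as the 573 to 405 nm absorbance ratio. Arachidonic acid at 40 uM (final) was turned over for 30 min at room temperature by 150 nM human 12hLO, pH 7.0 Hepes buffer, after 15 min compound preincubation.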
% is scaled to controls: 0 for no effect and ±100 for the full control effect; potency is read from the fitted curve at half-maximal effect.

Row | SMILES | activity change, negative = inhibition | Potency
1 | CCN(CC)c1nc2c(c(=O)n(C)c(=O)n2C)n1C(C)C | inactive: 8.88% | 
2 | COc1ccc(N2CCN(C(=O)C(C)n3nc(C)c4sc5ccccc5c4c3=O)CC2)cc1 (stereo not drawn) | inactive: -22.2% | 
3 | CCCN(CCO)Cc1ccc2ccccc2c1 | inactive: -0.748% [at 57.4 µM] | 
4 | O=C(C1CCC1)N1CCN(c2ccc(Cl)cc2)CC1 |  | inconclusive: 39.8 µM [inhibitor, partial curve, poor fit]
5 | CCCCOc1ccc(C(=O)Nc2cccc(C)n2)cc1 | inactive: -9.27% | 
6 | O=C(Cn1nc(Cc2ccncc2)c2ccccc2c1=O)N1CCc2ccccc2C1 |  | inconclusive: 15.8 µM [inhibitor, partial curve, poor fit]
7 | COc1ccc(OCCn2cc(C=O)c3ccccc32)cc1 | inactive: 3.14% | 
8 | Cc1ccc2c(c1)C(C)(C)C1(/C=C/c3cccc(Cl)c3)NC(=O)CN21 (stereo not drawn) | inactive: -47% | 
9 | CN(CC1CCOC1)C(=O)Nc1c(F)cccc1F (stereo not drawn) | inactive: 43.6% | 
10 | Cc1ccc(NC(=O)c2cc(-c3ccccc3)n[nH]2)cc1 | inconclusive: -35.1% [inhibitor] | 
11 | O=[N+]([O-])c1cccc(/C=N/O)c1 |  | inconclusive: 39.8 µM [inhibitor, partial curve, poor fit]
12 | O=C(OCCN1CCOCC1)c1ccccc1Cl |  | inconclusive: 35.5 µM [inhibitor, partial curve, poor fit]
13 | O=C(c1cc2c(c(-c3cccc(-c4ccncc4)c3)n1)[C@@H](CCO)N(C(=O)c1ccc3c(c1)OCO3)C2)N1CCOCC1 |  | inconclusive: 35.5 µM [inhibitor, partial curve, poor fit]
14 | COc1ccc(CSCC(=O)N/N=C/c2ccc(OCC(=O)N3CCCCC3)cc2)cc1 |  | inconclusive: 6.31 µM [inhibitor, partial curve, poor fit]
15 | O=C(NC(=S)Nc1cccc(NC(=O)c2ccccc2)c1)c1cccc([N+](=O)[O-])c1 |  | active: 28.2 µM
16 | Cc1ccc(C(=O)COC(=O)c2n[nH]c(=O)c3ccccc23)cc1 |  | inconclusive: 89.1 µM [inhibitor, partial curve, poor fit]
17 | COc1ccc(Cl)cc1C(=O)Nc1nc2ccccc2[nH]1 | inactive: 15.8% | 
18 | CCn1cnnc1-c1nn(C)c2c1CN(C(=O)CCc1ccc(OC)cc1)CC2 | inactive: 16.5% | 
19 | O=C(NC(=S)Nc1ccccc1)c1csnn1 |  | inconclusive: 50.1 µM [inhibitor, partial curve, poor fit]
20 | CCOC(=O)C1CCN(C(=O)CCN(CC)C(=O)c2cc(C)oc2C)CC1 |  | inconclusive: 15.8 µM [inhibitor, full curve, poor fit]
21 | c1csc(-c2cc3ccccn3c2)c1 | inactive: -80.2% | 
22 | C[C@H](CO)N1C[C@H](C)[C@@H](CN(C)C(=O)Nc2ccc3c(c2)OCO3)Oc2ccc(NC(=O)CCC(F)(F)F)cc2C1=O |  | inconclusive: 100 µM [inhibitor, single point]

Row | SMILES | activity change, negative = inhibition | Potency
23 | Cc1ccc(NC(=O)CN2C(=O)N/C(=C/c3ccc(C)s3)C2=O)cc1 |  | inconclusive: 50.1 µM [inhibitor, partial curve, poor fit]
24 | CCOc1ccc(NC(=O)Cn2nc(C(=O)O)c3ccccc3c2=O)cc1 |  | inconclusive: 50.1 µM [inhibitor, partial curve, poor fit]
25 | CCOc1ccc(C(=O)N(c2ccc(C)cc2)C2C=CS(=O)(=O)C2)cc1 (stereo not drawn) | inactive: 1.06% | 
26 | Cc1cccc(-c2ccc3c(c2)C2CC3CCN2C(=O)OCc2ccccc2)c1 (stereo not drawn) |  | inconclusive: 0.224 µM [inhibitor, full curve, poor fit]
27 | Cc1cccc(OCCCC(=O)NNC(=O)c2ccncc2)c1 | inactive: -1.13% | 
28 | CCCCNC(=S)N=Nc1c(O)n(Cc2ccccc2)c2ccccc12 |  | inconclusive: 39.8 µM [inhibitor, partial curve, poor fit]
29 | CN(C(=O)c1cccc(NC(=O)Cc2cccc(NC(=O)C3CCCN(C(=O)C4CC4)C3)c2)c1)C1CCC1 (stereo not drawn) |  | inconclusive: 126 µM [inhibitor, single point]
30 | Cc1cc(C(F)F)n2ncc(C(=O)N3CCCCC3)c2n1 |  | inconclusive: 35.5 µM [inhibitor, partial curve, poor fit]
31 | CCOC(=O)Nc1ccc(C(=O)Oc2ccccc2)c(O)c1 |  | inconclusive: 0.0794 µM [inhibitor, full curve, poor fit]
32 | COc1ccc(NC(=O)c2ccc(Cl)cc2)c2cccnc12 |  | inconclusive: 44.7 µM [inhibitor, single point]
33 | Cc1cc(C(=O)CSc2nc3ccccc3c(=O)n2C)c(C)n1Cc1ccc2c(c1)OCO2 |  | inconclusive: 10 µM [inhibitor, partial curve, poor fit]
34 | CCCOc1cccc(-c2cc(C(=O)O)c3ccccc3n2)c1 |  | inconclusive: 25.1 µM [inhibitor, partial curve, poor fit]
35 | CSCC[C@@H]1NC(=O)c2cc(NC(=O)c3n[nH]c4c3CCCC4)ccc2NC1=O |  | inconclusive: 28.2 µM [inhibitor, partial curve, poor fit]
36 | Cc1[nH]c2ccccc2c1C(=O)N1CCN(S(=O)(=O)c2cc(F)ccc2F)CC1 |  | inconclusive: 50.1 µM [inhibitor, single point]
38 | C=CCn1c(COc2cc(C)c(Cl)c(C)c2)n[nH]c1=S |  | inconclusive: 35.5 µM [inhibitor, partial curve, poor fit]
39 | CC/C(=N/Nc1cccc(Cl)c1)c1cnnc(SC)n1 |  | inconclusive: 8.91 µM [inhibitor, partial curve, poor fit]
40 | CCCCOC(=O)CSCC(=O)N1N=C(c2cccs2)CC1c1ccc(F)cc1 (stereo not drawn) | inactive: -9.94% | 
41 | Cc1ccc(C(=O)NNC(=O)c2csc(N3CCOCC3)n2)o1 | inactive: -6.29% | 
42 | NC(=O)Nc1cc(-c2cccc(F)c2)sc1C(=O)N[C@H]1CCCNC1 |  | inconclusive: 17.2 µM [inhibitor, partial curve]
43 | O=C(Nc1ccc(C(F)(F)F)cc1)c1ccc(N2C(=O)CCS2(=O)=O)cc1 |  | inconclusive: 39.8 µM [inhibitor, partial curve, poor fit]

Of the compounds above, these have a furan ring, fused or not.
Row | SMILES | activity change, negative = inhibition | Potency
20 | CCOC(=O)C1CCN(C(=O)CCN(CC)C(=O)c2cc(C)oc2C)CC1 |  | inconclusive: 15.8 µM [inhibitor, full curve, poor fit]
41 | Cc1ccc(C(=O)NNC(=O)c2csc(N3CCOCC3)n2)o1 | inactive: -6.29% | 
